According to paper PMC12435577:
No constants are given. Whether binding was seen depends on the method and setting. Binding seen in cells or lysates may run through a third protein. Some entries that bind do so weakly or less than the wild type.

Protein sequences, listed by entry. Tags and fused reporters are not part of them.
UniProt Q8C3P7: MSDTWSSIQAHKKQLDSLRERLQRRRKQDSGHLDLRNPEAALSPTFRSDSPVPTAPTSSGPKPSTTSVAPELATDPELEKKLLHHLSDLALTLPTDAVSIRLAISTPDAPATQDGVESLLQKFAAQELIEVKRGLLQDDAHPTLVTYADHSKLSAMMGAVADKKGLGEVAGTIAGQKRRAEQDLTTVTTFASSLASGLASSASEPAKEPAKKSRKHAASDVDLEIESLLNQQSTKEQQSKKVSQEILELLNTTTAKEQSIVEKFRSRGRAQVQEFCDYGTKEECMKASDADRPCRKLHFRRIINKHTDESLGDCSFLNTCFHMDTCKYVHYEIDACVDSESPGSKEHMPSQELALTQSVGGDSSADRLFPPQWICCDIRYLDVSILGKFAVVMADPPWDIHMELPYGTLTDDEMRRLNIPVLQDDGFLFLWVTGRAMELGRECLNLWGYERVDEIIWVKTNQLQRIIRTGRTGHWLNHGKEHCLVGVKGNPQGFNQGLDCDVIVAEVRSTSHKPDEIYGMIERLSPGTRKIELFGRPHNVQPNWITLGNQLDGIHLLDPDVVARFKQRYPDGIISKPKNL
UniProt Q8R4B8: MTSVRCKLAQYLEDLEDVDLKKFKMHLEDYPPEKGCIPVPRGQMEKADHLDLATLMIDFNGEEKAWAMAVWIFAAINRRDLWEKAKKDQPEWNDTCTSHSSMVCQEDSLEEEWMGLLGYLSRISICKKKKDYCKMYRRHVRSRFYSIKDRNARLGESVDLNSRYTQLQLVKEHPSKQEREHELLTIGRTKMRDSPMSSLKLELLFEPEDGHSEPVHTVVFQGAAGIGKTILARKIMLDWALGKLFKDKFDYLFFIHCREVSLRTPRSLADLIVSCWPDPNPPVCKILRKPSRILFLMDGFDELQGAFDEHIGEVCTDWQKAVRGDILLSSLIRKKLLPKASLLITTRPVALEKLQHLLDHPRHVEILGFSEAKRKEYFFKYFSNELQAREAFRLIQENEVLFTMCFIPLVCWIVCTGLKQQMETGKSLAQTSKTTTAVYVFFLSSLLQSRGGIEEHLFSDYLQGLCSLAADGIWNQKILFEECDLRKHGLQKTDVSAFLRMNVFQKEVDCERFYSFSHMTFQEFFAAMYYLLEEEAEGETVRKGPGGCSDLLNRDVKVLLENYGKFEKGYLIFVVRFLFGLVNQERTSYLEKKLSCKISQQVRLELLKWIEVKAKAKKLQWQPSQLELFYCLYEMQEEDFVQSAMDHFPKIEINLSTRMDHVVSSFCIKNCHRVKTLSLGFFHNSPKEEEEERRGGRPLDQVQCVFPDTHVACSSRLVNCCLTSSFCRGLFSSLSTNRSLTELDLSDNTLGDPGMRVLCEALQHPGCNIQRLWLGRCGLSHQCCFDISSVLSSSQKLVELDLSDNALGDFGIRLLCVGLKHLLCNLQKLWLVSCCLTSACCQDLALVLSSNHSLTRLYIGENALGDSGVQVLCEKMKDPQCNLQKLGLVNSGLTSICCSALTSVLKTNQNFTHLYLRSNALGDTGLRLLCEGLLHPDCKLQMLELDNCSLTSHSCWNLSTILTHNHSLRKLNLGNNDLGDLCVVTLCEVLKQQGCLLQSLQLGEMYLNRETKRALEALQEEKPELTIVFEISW

T1: DLGAP5 (mouse (endogenous in primary hepatocytes and AML12)) (UniProt Q8K4R9)
T1 sequence: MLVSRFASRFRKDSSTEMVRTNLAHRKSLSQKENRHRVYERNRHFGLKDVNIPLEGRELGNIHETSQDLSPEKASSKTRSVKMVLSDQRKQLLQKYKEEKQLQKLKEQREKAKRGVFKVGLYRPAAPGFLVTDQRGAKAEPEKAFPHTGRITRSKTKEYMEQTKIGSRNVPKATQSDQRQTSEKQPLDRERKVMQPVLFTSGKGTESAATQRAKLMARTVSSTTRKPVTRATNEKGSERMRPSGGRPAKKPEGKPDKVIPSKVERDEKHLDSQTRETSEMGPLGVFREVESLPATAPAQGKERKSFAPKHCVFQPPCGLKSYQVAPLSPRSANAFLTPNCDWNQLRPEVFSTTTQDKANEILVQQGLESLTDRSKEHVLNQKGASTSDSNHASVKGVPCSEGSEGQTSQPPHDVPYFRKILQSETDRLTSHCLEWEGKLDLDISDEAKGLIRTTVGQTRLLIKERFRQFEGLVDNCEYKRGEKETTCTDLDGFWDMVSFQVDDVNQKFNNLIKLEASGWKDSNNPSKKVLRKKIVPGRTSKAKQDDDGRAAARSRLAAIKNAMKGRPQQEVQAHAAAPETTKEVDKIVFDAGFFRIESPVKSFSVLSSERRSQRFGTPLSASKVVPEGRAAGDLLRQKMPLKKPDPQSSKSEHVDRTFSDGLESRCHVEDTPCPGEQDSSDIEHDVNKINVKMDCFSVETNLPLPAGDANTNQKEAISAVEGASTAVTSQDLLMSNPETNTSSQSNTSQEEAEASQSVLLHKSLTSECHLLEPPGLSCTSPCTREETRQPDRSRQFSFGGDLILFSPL

T2: CASPASE1-CARD (mouse (from the printed UniProt entry)) (UniProt P29452)
T2 sequence: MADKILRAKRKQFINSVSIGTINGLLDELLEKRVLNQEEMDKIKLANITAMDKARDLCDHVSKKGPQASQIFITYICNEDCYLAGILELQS

B1: ASC-CARD (domain or fragment, UniProt Q9EPB4 105-193)
chain: STARTGHFVDQHRQALIARVTEVDGVLDALHGSVLTEGQYQAVRAETTSQDKMRKLFSFVPSWNLTCKDSLLQALKEIHPYLVMDLEQS

How the values were obtained:
[1] = target: T1, DLGAP5 (mouse (endogenous in primary hepatocytes and AML12)); assay: co-IP; endogenous proteins in lysates of primary hepatocytes and AML12 cells; Pierce IP Lysis Buffer, precleared with protein A magnetic beads, indicated antibody 2 h at room temperature, Western blot; anti-IgG as control
[2] = target: T2, CASPASE1-CARD (mouse); assay: co-IP; truncated domain constructs (pcDNA3.1) transfected into primary hepatocytes, Dlgap5-overexpressed and control; Pierce IP Lysis Buffer, protein A magnetic beads, indicated antibody, Western blot

Molecule	binding [1]	binding [2]
methyltransferase-like 3 (METTL3) (from UniProt Q8C3P7 1-580) (enzyme)	binds	–
NOD-like receptor family pyrin domain containing 3 (NLRP3) (from UniProt Q8R4B8 1-1033)	binds	–
B1	–	binds
